Measurements from PMC5460035.

T1: EFTUD2-FLAG (UniProt Q15029)
T1 sequence: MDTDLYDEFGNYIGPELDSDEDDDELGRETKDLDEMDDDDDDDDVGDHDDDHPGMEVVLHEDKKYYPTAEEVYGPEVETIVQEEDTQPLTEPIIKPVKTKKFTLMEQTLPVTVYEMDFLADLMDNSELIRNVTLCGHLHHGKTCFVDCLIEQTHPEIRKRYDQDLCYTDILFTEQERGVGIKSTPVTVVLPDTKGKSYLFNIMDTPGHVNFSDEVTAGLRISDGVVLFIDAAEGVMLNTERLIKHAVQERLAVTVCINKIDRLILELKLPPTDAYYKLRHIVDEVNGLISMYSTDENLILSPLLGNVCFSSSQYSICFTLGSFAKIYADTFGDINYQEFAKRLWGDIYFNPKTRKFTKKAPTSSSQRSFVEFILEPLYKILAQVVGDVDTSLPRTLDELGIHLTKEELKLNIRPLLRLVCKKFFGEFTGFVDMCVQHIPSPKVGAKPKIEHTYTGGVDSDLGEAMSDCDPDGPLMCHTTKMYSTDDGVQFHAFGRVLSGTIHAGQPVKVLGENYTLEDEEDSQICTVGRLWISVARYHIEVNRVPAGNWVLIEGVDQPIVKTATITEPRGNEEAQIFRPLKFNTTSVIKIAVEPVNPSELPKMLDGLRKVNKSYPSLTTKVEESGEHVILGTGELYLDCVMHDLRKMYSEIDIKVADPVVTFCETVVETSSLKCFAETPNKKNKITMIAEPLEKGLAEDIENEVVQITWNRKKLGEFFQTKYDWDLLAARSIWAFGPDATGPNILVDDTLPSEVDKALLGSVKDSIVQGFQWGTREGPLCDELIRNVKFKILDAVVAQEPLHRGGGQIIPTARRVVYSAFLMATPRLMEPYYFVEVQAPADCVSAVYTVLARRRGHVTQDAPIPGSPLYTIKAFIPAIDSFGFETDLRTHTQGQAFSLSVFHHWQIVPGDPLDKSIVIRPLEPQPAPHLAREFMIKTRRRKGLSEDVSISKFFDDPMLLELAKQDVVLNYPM

T2: TAP-tagged AAR2 (UniProt Q9Y312)
T2 sequence: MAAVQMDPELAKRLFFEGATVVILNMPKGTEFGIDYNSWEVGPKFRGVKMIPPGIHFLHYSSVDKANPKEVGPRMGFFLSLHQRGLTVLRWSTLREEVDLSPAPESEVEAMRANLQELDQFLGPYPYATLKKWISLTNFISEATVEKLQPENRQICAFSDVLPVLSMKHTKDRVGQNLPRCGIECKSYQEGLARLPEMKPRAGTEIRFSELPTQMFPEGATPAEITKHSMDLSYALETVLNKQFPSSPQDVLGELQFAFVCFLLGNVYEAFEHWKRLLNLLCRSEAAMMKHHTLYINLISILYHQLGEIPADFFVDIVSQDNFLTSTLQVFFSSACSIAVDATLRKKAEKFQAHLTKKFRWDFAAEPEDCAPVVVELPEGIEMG

T3: TAP-tagged CD2BP2 (UniProt O95400)
T3 sequence: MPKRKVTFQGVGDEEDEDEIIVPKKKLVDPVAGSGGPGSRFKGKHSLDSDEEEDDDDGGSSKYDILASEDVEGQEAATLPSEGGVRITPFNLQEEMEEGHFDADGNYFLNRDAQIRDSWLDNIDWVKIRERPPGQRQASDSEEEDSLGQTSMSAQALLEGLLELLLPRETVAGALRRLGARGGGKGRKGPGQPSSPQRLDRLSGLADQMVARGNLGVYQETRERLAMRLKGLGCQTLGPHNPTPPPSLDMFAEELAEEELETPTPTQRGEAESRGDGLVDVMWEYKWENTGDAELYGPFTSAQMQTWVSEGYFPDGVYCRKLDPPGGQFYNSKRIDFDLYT

T4: TAP-tagged SLC7A6OS (UniProt Q96CW6)
T4 sequence: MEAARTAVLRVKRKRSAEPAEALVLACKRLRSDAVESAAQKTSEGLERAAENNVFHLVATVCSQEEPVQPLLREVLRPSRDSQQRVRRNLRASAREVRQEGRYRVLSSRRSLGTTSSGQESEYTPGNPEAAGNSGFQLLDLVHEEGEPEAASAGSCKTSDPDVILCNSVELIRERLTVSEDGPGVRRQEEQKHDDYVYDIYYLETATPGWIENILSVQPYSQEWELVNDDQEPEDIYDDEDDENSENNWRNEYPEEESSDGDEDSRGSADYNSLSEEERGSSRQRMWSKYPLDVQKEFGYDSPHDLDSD

T5: TAP-tagged ZNHIT2 (human) (UniProt Q9UHR6)
T5 sequence: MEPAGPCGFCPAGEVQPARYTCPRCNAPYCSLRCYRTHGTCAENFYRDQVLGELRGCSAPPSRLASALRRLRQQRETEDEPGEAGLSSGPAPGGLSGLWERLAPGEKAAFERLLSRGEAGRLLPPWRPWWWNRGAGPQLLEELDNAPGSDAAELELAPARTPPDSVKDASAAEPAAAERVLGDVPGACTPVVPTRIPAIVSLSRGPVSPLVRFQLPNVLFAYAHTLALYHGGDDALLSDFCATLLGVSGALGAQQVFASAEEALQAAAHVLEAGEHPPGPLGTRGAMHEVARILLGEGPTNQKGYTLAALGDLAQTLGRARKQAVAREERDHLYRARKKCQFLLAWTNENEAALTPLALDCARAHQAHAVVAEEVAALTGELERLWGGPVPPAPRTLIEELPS


Columns and labels:
[1] = biological target: T1, EFTUD2-FLAG; assay: affinity purification with mass spectrometry; triple SILAC: FLAG-tagged bait in HEK 293 cells with control siRNA (medium) or siRNA against ZNHIT2 or RUVBL2 (heavy), untransfected cells (light) as control; anti-FLAG M2 magnetic beads, lysis buffer with 100 mM KCl and 0.1% NP-40; MaxQuant
[2] = biological target: PRPF8-FLAG (UniProt Q6P2Q9); assay: as above
[3] = biological target: T2, TAP-tagged AAR2; assay: affinity purification with mass spectrometry; TAP-MS: TAP-tagged bait induced with 3 uM ponasterone A for 48 h in stable EcR 293 cells; IgG sepharose, TEV cleavage, calmodulin sepharose, LC-MS/MS; soluble and chromatin fractions purified separately, the fraction is not told for these hits
[4] = biological target: T3, TAP-tagged CD2BP2; assay: as above
[5] = biological target: T4, TAP-tagged SLC7A6OS; assay: as above
[6] = biological target: T5, TAP-tagged ZNHIT2 (human); assay: as above
[7] = biological target: TAP-tagged TSC2, P49815; assay: as above; conditions: remark: other sources report otherwise

binding [2] | binding [3] | binding [4] | Binder | other results
binds | binds | binds | ZNHIT2 (protein, UniProt Q9UHR6 1-403) MEPAGPCGFCPAGEVQPARYTCPRCNAPYCSLRCYRTHGTCAENFYRDQVLGELRGCSAPPSRLASALRRLRQQRETEDEPGEAGLSSGPAPGGLSGLWERLAPGEKAAFERLLSRGEAGRLLPPWRPWWWNRGAGPQLLEELDNAPGSDAAELELAPARTPPDSVKDASAAEPAAAERVLGDVPGACTPVVPTRIPAIVSLSRGPVSPLVRFQLPNVLFAYAHTLALYHGGDDALLSDFCATLLGVSGALGAQQVFASAEEALQAAAHVLEAGEHPPGPLGTRGAMHEVARILLGEGPTNQKGYTLAALGDLAQTLGRARKQAVAREERDHLYRARKKCQFLLAWTNENEAALTPLALDCARAHQAHAVVAEEVAALTGELERLWGGPVPPAPRTLIEELPS | binding [1]: binds
– | – | – | EAPP (protein, UniProt Q56P03 1-285) MNRLPDDYDPYAVEEPSDEEPALSSSEDEVDVLLHGTPDQKRKLIRECLTGESESSSEDEFEKEMEAELNSTMKTMEDKLSSLGTGSSSGNGKVATAPTRYYDDIYFDSDSEDEDRAVQVTKKKKKKQHKIPTNDELLYDPEKDNRDQAWVDAQRRGYHGLGPQRSRQQQPVPNSDAVLNCPACMTTLCLDCQRHESYKTQYRAMFVMNCSINKEEVLRYKASENRKKRRVHKKMRSNREDAAEKAETDVEEIYHPVMCTECSTEVAVYDKDEVFHFFNVLASHS | binding [5]: binds; binding [6]: binds
– | binds | binds | SLC7A6OS (protein, UniProt Q96CW6 1-309) MEAARTAVLRVKRKRSAEPAEALVLACKRLRSDAVESAAQKTSEGLERAAENNVFHLVATVCSQEEPVQPLLREVLRPSRDSQQRVRRNLRASAREVRQEGRYRVLSSRRSLGTTSSGQESEYTPGNPEAAGNSGFQLLDLVHEEGEPEAASAGSCKTSDPDVILCNSVELIRERLTVSEDGPGVRRQEEQKHDDYVYDIYYLETATPGWIENILSVQPYSQEWELVNDDQEPEDIYDDEDDENSENNWRNEYPEEESSDGDEDSRGSADYNSLSEEERGSSRQRMWSKYPLDVQKEFGYDSPHDLDSD | –
binds | – | – | SNRNP40 (protein, UniProt Q96DI7 1-357) MIEQQKRKGPELPLVPVKRQRHELLLGAGSGPGAGQQQATPGALLQAGPPRCSSLQAPIMLLSGHEGEVYCCKFHPNGSTLASAGFDRLILLWNVYGDCDNYATLKGHSGAVMELHYNTDGSMLFSASTDKTVAVWDSETGERVKRLKGHTSFVNSCYPARRGPQLVCTGSDDGTVKLWDIRKKAAIQTFQNTYQVLAVTFNDTSDQIISGGIDNDIKVWDLRQNKLTYTMRGHADSVTGLSLSSEGSYLLSNAMDNTVRVWDVRPFAPKERCVKIFQGNVHNFEKNLLRCSWSPDGSKIAAGSADRFVYVWDTTSRRILYKLPGHAGSINEVAFHPDEPIIISASSDKRLYMGEIQ | –
– | – | – | TBC1D7, Q9P0N9 1-293 (protein) MTEDSQRNFRSVYYEKVGFRGVEEKKSLEILLKDDRLDTEKLCTFSQRFPLPSMYRALVWKVLLGILPPHHESHAKVMMYRKEQYLDVLHALKVVRFVSDATPQAEVYLRMYQLESGKLPRSPSFPLEPDDEVFLAIAKAMEEMVEDSVDCYWITRRFVNQLNTKYRDSLPQLPKAFEQYLNLEDGRLLTHLRMCSAAPKLPYDLWFKRCFAGCLPESSLQRVWDKVVSGSCKILVFVAVEILLTFKIKVMALNSAEKITKFLENIPQDSSDAIVSKAIDLWHKHCGTPVHSS | binding [7]: binds

Results are given in words; binding and its absence hold for the method and conditions named. In cells and extracts the contact can be indirect. These calls come from enrichment with a bait or labelling near it, and not all partners need be listed. For some of these results: Sequences can lack the tags named with a protein.
